Source: US20080057529A1, “Method for Identifying Histone Deacetylase Inhibitors” (priority 2003, published 2008)
pEC50: −log10 of the molar value.

Test system: p21 minimal promoter
Experiment: Fluorometric β-lactamase activity assay in stable HeLa clone 1.17 (p21m-BLA)
Format: cell-based
Conditions: Homo sapiens, clone 1.17, about 13 hours treatment, means of 3 to 4 independent experiments
Experimental: All clones were screened for the presence of stably and functional integrated copies of the p21m-BLA reporter gene transcription cassette by performing a fluorometric β-lactamase activity assay after treatment with the HDAC inhibitor Apicidin at a concentration of 1 μM (saturating dose representing 100% of Bla gene activation, i.e., 100% of HDAC inhibition). A 100 μL aliquot of cells for each stable transformant in complete DMEM was plated into a well of a 96 well plate at about 36,000 cells per well for treatment with 1 μM Apicidin (saturating dose) and a 100 μL aliquot of cells was plated into a well of a 96 well plate at 24,000 cells per well for treatment with DMSO (vehicle control). Each plate also had four DMEM controls and four HeLa cell controls prepared in the same manner. After 4 hours, 25 μL of complete DMEM containing Apicidin at 5× final concentration or DMSO (5%) was added to each of the wells. The cells were then grown at 37° C., 5% CO2 for about 12 to 16 hours. Afterwards, the medium was removed and 100 μL of DMEM without serum and 25 μL of FRET labeled CCF2-AM Bla substrate diluted in the appropriate buffer according to the manufacturer recommendations were each added to the cells to give a final concentration of 1 μM CCF2-AM. Fluorescence was read at λex 405/20 λem 460/40 on a FLUOSTAR (BMG Labtechnologies, Offenburg Germany).

A pEC50 of 5.80 was found for `O=C(CCCCCCC(=O)Nc1ccccc1)NO` [SAHA, suberoylanilide hydroxamic acid] in this work.
